Data as given in paper PMC5956019, “A rapid solution-based method for determining the affinity of heroin hapten-induced antibodies to heroin, its metabolites, and other opioids” (Analytical and Bioanalytical Chemistry, 2018).
Read-outs that look alike come from different tables or passages of the source.

How the values were obtained:
6-AmHap-Abs [1] = assay type: binding, mouse; details: for IC50: read-out: Heterologous MST IC50; for Ki: read-out: Heterologous MST Ki
Method: The final concentrations of 6-AmHap-Abs, MorHap-Cy5 in the capillaries were 10 nM and 0.25 nM, respectively. The same procedure was performed for the binding of the 6-AmHap-Abs to the other drugs but different concentrations of competitor working solutions were used.
For the heroin-binding assay in the presence of esterase inhibitors, a working solution containing 6-AmHap antibody (40 nM) and 80 μM iso-OMPA/80 μM BNPP was incubated for 2 h at RT. An equal volume of MorHap-Cy5 (1 nM) was then mixed with the 6-AmHap-Abs/iso-OMPA/BNPP mixture and the reaction mixture was further incubated for 20 min in the dark at RT. The rest of the procedure was performed as described above. The final concentrations of 6-AmHap-Abs, iso-OMPA/BNPP, and MorHap-Cy5 in the capillaries were 10 nM, 20 μM/20 μM, and 0.25 nM, respectively.
The MST measurements were done on a Monolith™ NT.115^Pico instrument from NanoTemper Technologies GmbH. The instrument was equipped with an IR laser (wavelength, 1475 ± 15 nm; power, 120 mW maximum) and a red fluorescence channel that can detect red dyes, such as Cy5 and Alexa Fluor 647. The samples were measured at an LED power of 20% and an MST power of 25% with a laser-on time of 30 s and a laser-off time of 5 s. MST measurements of 15–16 samples typically take ~ 20 min.
In the competition MST procedures, a constant concentration of MorHap-Cy5:antibody complex was titrated with an increasing concentration of drug competitor. […] The software plots Fnorm against 15–16 increasing drug competitor concentration points to yield the binding curve, and subsequently fits the curve to obtain the IC50. For presentation purposes, the fraction bound was manually calculated and plotted using the equation above where x is the Fnorm at a given competitor concentration. The binding affinities (Ki) from the heterologous MST assays were then derived using the Ki-Finder software from the Nanotemper website. In order to calculate the Ki, the following parameters must be entered into the Ki-Finder website: the binding affinity of the tracer against the antibody (Kd), the concentration of the antibody (I0), the concentration of the tracer (labeled T0), the highest concentration of the competitor (L0), and the IC50 of the competitor to the antibody. The website then plots both the binding curve and competition curve to produce the competitor Ki, also known as the Kd of the antibody to the drug competitor.

6-AmHap-Abs [2] = assay type: binding, mouse; details: read-out: Competition ELISA Heterologous, IC50
6-AmHap-Abs [3] = details: read-out: Competition ELISA Homologous, IC50; cited from earlier work

| Compound | IC50 (6-AmHap-Abs [1]) [µM] | Ki (6-AmHap-Abs [1]) [µM] | IC50 (6-AmHap-Abs [2]) [µM] | IC50 (6-AmHap-Abs [3]) [µM] |
| --- | --- | --- | --- | --- |
| CCOC(=O)C1(c2ccccc2)CCN(C)CC1 [Meperidine, meperidine] | 1.1723 ± 0.00113 | 0.552 ± 0.262 | 7.03 ± 6.06 | 524 ± 143 |
| C=CCN1CC[C@]23c4c5ccc(O)c4O[C@H]2C(=O)CC[C@@]3(O)[C@H]1C5 [Naloxone, naloxone] | 3.0378 ± 0.00137 | 1.38 ± 0.147 | 2.05 ± 1.29 | > 1000 |
